# Percent effect of library compounds

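Whole-cell growth test on Mycobacterium tuberculosis, read after 3 days in glucose-containing 7H9 medium; the read-out is not stated. Tested at 50 µM. Higher reads as more growth inhibition (inferred: compounds with an IC50 in retests scored well above the rest). About 69,000 compounds were tested under these conditions; 1.1% (about 760) showed 50% or more at least once.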

Values are the deposited “Percent Effect”, in %. How 0% and 100% were set is not recorded. Most values in the screen are low, and negative values occur. Compounds were drawn at random from those tested, without regard to their results. Two or more numbers in one place are separate tests of the same structure; such repeats can differ widely.

structure	percent effect
Cc1cc(C(=O)N2CCC3(CCN3Cc3ccc(F)cc3)C2)no1.O=C(O)C(F)(F)F (configuration not stated)	8.824
O=C(c1cccnc1)N1CCC2(CC1)CN(c1ccccn1)CCO2	20.51
Cc1nn2c(NC(=O)CSc3ncccn3)csc2nc1=O	-4.646
O=C(O)C(F)(F)F.c1coc(CN2CCc3onc(Cn4cccc4)c3C2)c1	8.174 and -27.67
Cc1cc(NC(=O)NC2CCN(C(C)C)CC2)c2ncccc2c1	-33.47
[H][C@@]12COC[C@@H](CC(=O)NCCOC)[C@]1([H])CN(Cc1cccnc1)C2	-15.38
Cc1nc(CN2CCc3ncnc(-c4cccnc4)c3CC2)cs1.O=C(O)C(F)(F)F.O=C(O)C(F)(F)F	-75.36
CC1=Nc2c(c(=O)[nH]n2C2CCCC2)C(c2ccc(O)cc2)S1 (configuration not stated)	9.205
CCn1ccc(C(=O)NCCCN2CCOCC2)n1	-39.01
Cc1nc(C2CCCN2Cc2nnc(Cc3ccccc3)o2)no1 (configuration not stated)	2.384
Cc1n[nH]c(C)c1Sc1ccccc1NC(=O)CN1CCCC1	37.49
COCC1CN(CC2CCOCC2)Cc2cn(CC3CCCC3)nc21 (configuration not stated)	3.929
O=c1c2ccccc2nc2n1C(CSc1ccc(Br)cc1)CN2 (configuration not stated)	-11.34 and 6.361
CC(=O)N1CCCC1c1nc(CN(C)C(=O)C(C)C)cc(N(C)C)n1 (configuration not stated)	6.759
CN(Cc1cc(Br)cn1C)C(=O)c1ccsc1	21.07
CC(CNC1CCN(c2ccccn2)CC1)Oc1ccc(F)cc1 (configuration not stated)	-1.394
COc1ccc(C(=O)N(CCO)Cc2ccccc2)c(OC)n1	-33.8
CC(CS(C)(=O)=O)N(C(=O)Nc1ccc(F)cc1F)C1CC1 (configuration not stated)	20.13
O=C(c1cccnc1)C1CCCN(c2nnc(C3CC3)o2)C1 (configuration not stated)	0.1515
CCCc1ccc2oc(C(=O)N3CCN(CCC(N)=O)CC3)c(C)c2c1	36.62
[H][C@@]12CCN(Cc3ccc(C)s3)C[C@]1(C(=O)N1CCCO1)CCO2	30.85
O=C(O)C(F)(F)F.O=C(O)C(F)(F)F.O=C(O)c1cc2c(nc1-c1cncnc1)CCN(C1CCOC1)CC2 (configuration not stated)	-9.949 and -61.99
Cc1ccc(C(C)NC(=O)N2CCN(S(C)(=O)=O)CC2)o1 (configuration not stated)	-1.595 and -3.737
Cc1cnc(N2CCC3(CC2)CC(NS(C)(=O)=O)CO3)nc1 (configuration not stated)	35.37
O=C(Cc1ccc2c(c1)CCO2)N1CCCC(n2cccn2)C1 (configuration not stated)	12.8
CC(C)C(=O)Nc1ncn(Cc2cccc(Br)c2)n1	-31.99
Cc1cc(Nc2ncccn2)nc(C2CCCN(CCO)C2)n1 (configuration not stated)	-6.185
[H][C@@]12C=C[C@@]([H])(C1)[C@H](C(=O)N1CCN(c3cc(C)nc(CC)n3)CC1)C2	18.36
CCOCCC(=O)Nc1cc(C(N)=O)ccc1N1CCCC(C)C1 (configuration not stated)	-9.131
CCc1cnc(CNc2cccc3c2CCN(S(=O)(=O)CC)C3)o1	24.67 and 9.911
N#CCCN(C(=O)CN1CCCC1C1CCCCC1)c1ccccc1 (configuration not stated)	-31.95
O=C(O)C(F)(F)F.[H][C@@]12C[C@H](C(=O)NCC3CC3)C[C@]1([H])OCCN2	6.375 and -8.61
[H][C@]12CC[C@]([H])(CN(Cc3cccnc3)C1)N(C(=O)CSc1ccncc1)C2	-0.9492 and -11.38
Cc1nc(C2(NCC(=O)NC(=O)NCC(F)(F)F)CCCCC2)no1	-13.66
Cn1cc(CCNCc2cc(Cl)c3c(c2)OCCO3)cn1	24.61
CCCn1cc(C(=O)NC(C(=O)O)c2ccccc2C(F)(F)F)c(C)n1 (configuration not stated)	22.4
Cc1nn(CCNc2ncnc3c2NC(=O)CN3)c(C)c1Cl	23.91
COCC(=O)N1CCCn2c(CN3CCCC3)nnc2C1	5.16
Cc1cnc(NC(=O)c2csc(NC3CCCC3)n2)s1	69.97 and -0.8215
O=C(O)C(F)(F)F.[H][C@]12CC[C@@]3(N=C(CC)N(CC4CC4)C3=O)[C@@]1([H])CN(CC1CC1)C2	-9.247
CCn1ccnc1CN1CCN(Cc2ccc(C#N)cc2)CC1	-21.18
[H][C@@]12CN(C(=O)COC)C[C@]1([H])OCCN2Cc1c(C)noc1C	30.41
CCC(C(=O)NCc1ccncc1)N(c1cccc(C)c1)S(C)(=O)=O (configuration not stated)	16.24
COCCN1CCCC1c1nccnc1Nc1ncc(C)s1 (configuration not stated)	21.57
CO[C@@H]1CN(C)S(=O)(=O)[C@@]12CCN(Cc1ccccc1)C2	25.72
CN(CC(F)(F)F)C(=O)CNC(=O)N1CCC(N2CCCC2)C1 (configuration not stated)	-11.83
Cc1ccc(Oc2ncccc2CNC2CCSCC2)cn1	1.821 and 10.63
COc1ccccc1-c1ncc(CN2CCC3(CCNCC3)CC2)cn1	-6.385
CC(NC(=O)c1cc(N2CCNC2=O)ccc1F)c1ccc(F)cc1 (configuration not stated)	2.302
O=C(COCC(F)(F)C(F)F)N1CCC2(CCCN(CCO)C2=O)C1 (configuration not stated)	4.771
Cc1c[nH]nc1C1CCN(c2cnccn2)C1 (configuration not stated)	18.9
[H][C@@]12CN(c3cc(OC)ncn3)C[C@@H](C(=O)N3CCCC3)[C@]1([H])CCO2	-31.71
NC1CCCc2c1cnn2-c1cc(F)cc(F)c1 (configuration not stated)	27.01
O=C(c1ccc(=O)[nH]n1)N1CCNCC1c1ccccc1 (configuration not stated)	4.368
CN(Cc1ccc(N2CCOCC2)cc1)C(=O)Cn1cccnc1=O	-6.319
CCn1ncnc1C(NC(=O)CC1CCN(C(C)C)CC1)C1CC1 (configuration not stated)	-19.03
CC(C)c1noc(-c2ccc(NCCCC3CCOC3)nc2)n1 (configuration not stated)	-16.86
CCN1CC2(CCN(CCOc3ccc(F)cc3)CC2)CC1=O	-52.06 and -13.25
CCc1nn(C)c2[nH]nc(NC(=O)c3ccccc3COC)c12	4.088
CC(C)COCCC(=O)NCc1cn2cc(Br)ccc2n1	3.945
COCCN1CCN(c2nc(O)cc(Cc3ccccc3F)n2)CC1	7.276
CC(=O)N1CCCC1c1cc(Nc2nnc(C)s2)nc(C)n1 (configuration not stated)	5.004
Cc1nc(C2CCCN2CC(=O)NCCc2ccsc2)no1 (configuration not stated)	9.228
O=C(O)C1(O)CCN(c2ccc3cccc(Cl)c3n2)CC1	8.04
COc1c(C)cnc(CN(C)C2CCCCC2)c1C	-36.16
CN(C)CCNC(=O)c1cc(-c2cnc(N(C)C)nc2)cn1CC1CC1	10.36
c1ccc(CCN2CCN(C3CCOC4(CCOCC4)C3)CC2)nc1 (configuration not stated)	13.26
O=C(c1nn(-c2ccccc2F)cc1O)N1CCCC1	-19.64
CCN(CC)S(=O)(=O)N(CC)Cc1ccc2c(c1)OCCO2	22.01
Cc1sc(Br)cc1S(=O)(=O)NCCCN.Cl	35.38
CCOCC1c2c(cnn2C)CCN1C(=O)c1cc(C)on1.O=C(O)C(F)(F)F (configuration not stated)	-8.751
CS(=O)(=O)Cc1nc(CNc2ccc(F)c(F)c2)cs1	5.679

For reference, 6 entries once more:

* O=C(O)C(F)(F)F.[H][C@@]12C[C@H](C(=O)NCC3CC3)C[C@]1([H])OCCN2 : 6.375% and -8.61%
* Cc1cc(Nc2ncccn2)nc(C2CCCN(CCO)C2)n1 (configuration not stated) : -6.185%
* CCOCC1c2c(cnn2C)CCN1C(=O)c1cc(C)on1.O=C(O)C(F)(F)F (configuration not stated) : -8.751%
* O=C(COCC(F)(F)C(F)F)N1CCC2(CCCN(CCO)C2=O)C1 (configuration not stated) : 4.771%
* Cc1nn(CCNc2ncnc3c2NC(=O)CN3)c(C)c1Cl : 23.91%
* CO[C@@H]1CN(C)S(=O)(=O)[C@@]12CCN(Cc1ccccc1)C2 : 25.72%

Source: ChEMBL document CHEMBL3988442, “University of Dundee, Small-Polar-MMV Screening Library” (2021).